Test results from paper PMC7562701.
Results are given in words; binding and its absence hold for the method and conditions named. Binding seen in cells or lysates may run through a third protein. Some binding calls cover weakened binding; strength is not graded here. Where a sequence is shown, tags or fusion partners need not be part of it.

T1: flag-RhoEα (human) (UniProt P61587)
T1 sequence: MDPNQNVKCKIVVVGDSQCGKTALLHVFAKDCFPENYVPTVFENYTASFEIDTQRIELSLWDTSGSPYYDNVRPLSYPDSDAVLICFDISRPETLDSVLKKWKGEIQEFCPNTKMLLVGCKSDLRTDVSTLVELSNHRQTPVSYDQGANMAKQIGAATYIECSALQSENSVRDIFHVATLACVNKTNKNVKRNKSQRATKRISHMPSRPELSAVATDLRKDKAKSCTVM

T2: flag-RhoE (human) (UniProt P61587)
T2 sequence: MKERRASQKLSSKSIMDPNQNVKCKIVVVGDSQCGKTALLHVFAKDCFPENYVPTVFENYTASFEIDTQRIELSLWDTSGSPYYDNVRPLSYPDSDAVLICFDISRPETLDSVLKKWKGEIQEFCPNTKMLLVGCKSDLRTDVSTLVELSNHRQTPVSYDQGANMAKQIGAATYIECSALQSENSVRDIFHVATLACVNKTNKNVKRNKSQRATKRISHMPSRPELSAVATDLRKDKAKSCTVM


Columns and labels:
flag-RhoEα (human) = biological target: T1, flag-RhoEα (human); experiment: co-IP; HEK293 cells transfected with indicated plasmids; lysates 24 h after transfection; precipitated with anti-flag antibody
flag-RhoE (human) = biological target: T2, flag-RhoE (human); experiment: as above

Row | binding (flag-RhoEα (human)) | binding (flag-RhoE (human)) | Binder
1 | binds | binds | p190RhoGAP (protein, UniProt Q9NRY4 1-1499) MMMARKQDVRIPTYNISVVGLSGTEKEKGQCGIGKSCLCNRFVRPSADEFHLDHTSVLSTSDFGGRVVNNDHFLYWGEVSRSLEDCVECKMHIVEQTEFIDDQTFQPHRSTALQPYIKRAAATKLASAEKLMYFCTDQLGLEQDFEQKQMPDGKLLVDGFLLGIDVSRGMNRNFDDQLKFVSNLYNQLAKTKKPIVVVLTKCDEGVERYIRDAHTFALSKKNLQVVETSARSNVNVDLAFSTLVQLIDKSRGKTKIIPYFEALKQQSQQIATAKDKYEWLVSRIVKNHNENWLSVSRKMQASPEYQDYVYLEGTQKAKKLFLQHIHRLKHEHIERRRKLYLAALPLAFEALIPNLDEIDHLSCIKAKKLLETKPEFLKWFVVLEETPWDATSHIDNMENERIPFDLMDTVPAEQLYEAHLEKLRNERKRVEMRRAFKENLETSPFITPGKPWEEARSFIMNEDFYQWLEESVYMDIYGKHQKQIIDKAKEEFQELLLEYSELFYELELDAKPSKEKMGVIQDVLGEEQRFKALQKLQAERDALILKHIHFVYHPTKETCPSCPACVDAKIEHLISSRFIRPSDRNQKNSLSDPNIDRINLVILGKDGLARELANEIRALCTNDDKYVIDGKMYELSLRPIEGNVRLPVNSFQTPTFQPHGCLCLYNSKESLSYVVESIEKSRESTLGRRDNHLVHLPLTLILVNKRGDTSGETLHSLIQQGQQIASKLQCVFLDPASAGIGYGRNINEKQISQVLKGLLDSKRNLNLVSSTASIKDLADVDLRIVMCLMCGDPFSADDILFPVLQSQTCKSSHCGSNNSVLLELPIGLHKKRIELSVLSYHSSFSIRKSRLVHGYIVFYSAKRKASLAMLRAFLCEVQDIIPIQLVALTDGAVDVLDNDLSREQLTEGEEIAQEIDGRFTSIPCSQPQHKLEIFHPFFKDVVEKKNIIEATHMYDNAAEACSTTEEVFNSPRAGSPLCNSNLQDSEEDIEPSYSLFREDTSLPSLSKDHSKLSMELEGNDGLSFIMSNFESKLNNKVPPPVKPKPPVHFEITKGDLSYLDQGHRDGQRKSVSSSPWLPQDGFDPSDYAEPMDAVVKPRNEEENIYSVPHDSTQGKIITIRNINKAQSNGSGNGSDSEMDTSSLERGRKVSIVSKPVLYRTRCTRLGRFASYRTSFSVGSDDELGPIRKKEEDQASQGYKGDNAVIPYETDEDPRRRNILRSLRRNTKKPKPKPRPSITKATWESNYFGVPLTTVVTPEKPIPIFIERCIEYIEATGLSTEGIYRVSGNKSEMESLQRQFDQDHNLDLAEKDFTVNTVAGAMKSFFSELPDPLVPYNMQIDLVEAHKINDREQKLHALKEVLKKFPKENHEVFKYVISHLNKVSHNNKVNLMTSENLSICFWPTLMRPDFSTMDALTATRTYQTIIELFIQQCPFFFYNRPITEPPGARPSSPSAVASTVPFLTSTPVTSQPSPPQSPPPTPQSPMQPLLPSQLQAEHTL
2 | binds | binds | synectin-binding RhoA exchange factor (Syx) (protein, UniProt O94827 1-1006) MHYDGHVRFDLPPQGSVLARNVSTRSCPPRTSPAVDLEEEEEESSVDGKGDRKSTGLKLSKKKARRRHTDDPSKECFTLKFDLNVDIETEIVPAMKKKSLGEVLLPVFERKGIALGKVDIYLDQSNTPLSLTFEAYRFGGHYLRVKAPAKPGDEGKVEQGMKDSKSLSLPILRPAGTGPPALERVDAQSRRESLDILAPGRRRKNMSEFLGEASIPGQEPPTPSSCSLPSGSSGSTNTGDSWKNRAASRFSGFFSSGPSTSAFGREVDKMEQLEGKLHTYSLFGLPRLPRGLRFDHDSWEEEYDEDEDEDNACLRLEDSWRELIDGHEKLTRRQCHQQEAVWELLHTEASYIRKLRVIINLFLCCLLNLQESGLLCEVEAERLFSNIPEIAQLHRRLWASVMAPVLEKARRTRALLQPGDFLKGFKMFGSLFKPYIRYCMEEEGCMEYMRGLLRDNDLFRAYITWAEKHPQCQRLKLSDMLAKPHQRLTKYPLLLKSVLRKTEEPRAKEAVVAMIGSVERFIHHVNACMRQRQERQRLAAVVSRIDAYEVVESSSDEVDKLLKEFLHLDLTAPIPGASPEETRQLLLEGSLRMKEGKDSKMDVYCFLFTDLLLVTKAVKKAERTRVIRPPLLVDKIVCRELRDPGSFLLIYLNEFHSAVGAYTFQASGQALCRGWVDTIYNAQNQLQQLRAQEPPGSQQPLQSLEEEEDEQEEEEEEEEEEEEGEDSGTSAASSPTIMRKSSGSPDSQHCASDGSTETLAMVVVEPGDTLSSPEFDSGPFSSQSDETSLSTTASSATPTSELLPLGPVDGRSCSMDSAYGTLSPTSLQDFVAPGPMAELVPRAPESPRVPSPPPSPRLRRRTPVQLLSCPPHLLKSKSEASLLQLLAGAGTHGTPSAPSRSLSELCLAVPAPGIRTQGSPQEAGPSWDCRGAPSPGSGPGLVGCLAGEPAGSHRKRCGDLPSGASPRVQPEPPPGVSAQHRKLTLAQLYRIRTTLLLNSTLTASEV
